{"source": "patent US6376666B1", "about": "(Nauchno-Issledovatelsky Institut Farmakologii Rossiiskoi …, priority 1994, dated 2002)", "experiment": "in vivo", "conditions": "iv", "data": [{"smiles": "CCN(CC)CC(=O)Nc1c(C)cccc1C", "note": "[Lidocaine, lidocaine]", "values": [{"measurement": "LD50", "result": 39.4, "unit": "mg/kg"}]}]}
